Results are given in words; binding and its absence hold for the method and conditions named. In cells and extracts the contact can be indirect. For part of these data: Binding can be weak; no strength is given.
Columns and labels:
[1] = target: INF2 ΔInter mutant (UniProt Q27J81); experiment: co-IP; 293T cells co-transfected with the two plasmids; cell lysates precipitated with anti-FLAG antibody; Western blot
[2] = target: INF2 ΔSBC mutant (UniProt Q27J81); experiment: as above
[3] = target: FLAG-SPOP-ΔNLS (lentivirus, DU145) (UniProt O43791); experiment: co-IP; DU145 cells infected with lentivirus expressing FLAG-SPOP (WT or ΔNLS) or control; anti-FLAG antibody; endogenous INF2 by Western blot
[4] = target: SPOP-F133L-ΔNLS (UniProt O43791); experiment: co-IP; 293T cells transfected with SPOP constructs; anti-FLAG antibody; endogenous KPNA5 by Western blot
[5] = target: SPOP-F125V-ΔNLS (UniProt O43791); experiment: as above
[6] = target: SPOP-ΔNLS (293T) (UniProt O43791); experiment: as above
[7] = target: SPOP-F133L-ΔNLS (UniProt O43791); experiment: co-IP; 293T cells co-transfected with the two plasmids; cell lysates precipitated with anti-FLAG antibody; Western blot
[8] = target: SPOP-F125V-ΔNLS (UniProt O43791); experiment: as above
[9] = target: SPOP-ΔNLS (293T) (UniProt O43791); experiment: as above

Chains of the proteins cited; added tags and fusions are not shown. Lines headed by an entry give the natural chain unless they say otherwise; changes in a name come on top.
UniProt Q27J81: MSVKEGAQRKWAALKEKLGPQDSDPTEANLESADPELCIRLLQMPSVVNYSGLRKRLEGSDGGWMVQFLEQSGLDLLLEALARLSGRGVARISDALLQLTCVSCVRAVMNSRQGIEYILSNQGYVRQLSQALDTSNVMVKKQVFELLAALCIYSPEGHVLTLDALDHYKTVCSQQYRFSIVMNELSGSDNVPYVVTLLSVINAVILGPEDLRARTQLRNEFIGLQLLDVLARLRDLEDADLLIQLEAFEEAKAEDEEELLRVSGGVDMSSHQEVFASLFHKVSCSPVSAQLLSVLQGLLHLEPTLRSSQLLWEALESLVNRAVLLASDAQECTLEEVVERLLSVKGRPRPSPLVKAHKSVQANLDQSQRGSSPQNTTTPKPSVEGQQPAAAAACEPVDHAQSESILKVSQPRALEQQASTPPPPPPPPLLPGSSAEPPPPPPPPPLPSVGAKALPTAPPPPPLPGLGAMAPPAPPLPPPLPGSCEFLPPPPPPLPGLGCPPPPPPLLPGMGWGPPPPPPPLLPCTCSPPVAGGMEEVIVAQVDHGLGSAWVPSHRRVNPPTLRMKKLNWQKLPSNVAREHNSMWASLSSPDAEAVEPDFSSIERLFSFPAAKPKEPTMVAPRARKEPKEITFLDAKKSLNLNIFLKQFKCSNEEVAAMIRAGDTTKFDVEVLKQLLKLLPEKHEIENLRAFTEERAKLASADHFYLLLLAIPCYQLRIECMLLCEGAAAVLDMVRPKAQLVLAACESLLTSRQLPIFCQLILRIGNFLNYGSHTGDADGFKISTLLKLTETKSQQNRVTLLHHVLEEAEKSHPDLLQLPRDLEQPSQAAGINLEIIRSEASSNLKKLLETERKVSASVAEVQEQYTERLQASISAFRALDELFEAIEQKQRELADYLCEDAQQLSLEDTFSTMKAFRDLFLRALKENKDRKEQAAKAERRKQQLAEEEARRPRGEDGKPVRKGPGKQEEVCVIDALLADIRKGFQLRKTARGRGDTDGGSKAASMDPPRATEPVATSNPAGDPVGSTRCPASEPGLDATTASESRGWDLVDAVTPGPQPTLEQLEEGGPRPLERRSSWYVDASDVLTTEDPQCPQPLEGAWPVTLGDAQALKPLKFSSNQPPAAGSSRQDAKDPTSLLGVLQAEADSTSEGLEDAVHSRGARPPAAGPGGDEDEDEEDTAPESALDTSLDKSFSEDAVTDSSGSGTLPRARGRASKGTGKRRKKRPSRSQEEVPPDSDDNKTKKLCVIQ
UniProt O43791: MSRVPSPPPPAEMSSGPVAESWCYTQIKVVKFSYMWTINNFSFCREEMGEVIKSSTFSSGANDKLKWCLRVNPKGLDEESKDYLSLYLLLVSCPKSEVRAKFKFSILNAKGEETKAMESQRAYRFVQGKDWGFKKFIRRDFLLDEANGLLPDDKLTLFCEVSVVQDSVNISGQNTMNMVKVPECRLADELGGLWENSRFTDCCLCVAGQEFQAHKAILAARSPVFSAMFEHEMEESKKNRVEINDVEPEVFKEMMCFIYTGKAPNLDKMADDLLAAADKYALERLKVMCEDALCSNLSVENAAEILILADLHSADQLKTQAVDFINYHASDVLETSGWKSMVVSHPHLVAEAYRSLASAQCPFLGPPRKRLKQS
UniProt O15131: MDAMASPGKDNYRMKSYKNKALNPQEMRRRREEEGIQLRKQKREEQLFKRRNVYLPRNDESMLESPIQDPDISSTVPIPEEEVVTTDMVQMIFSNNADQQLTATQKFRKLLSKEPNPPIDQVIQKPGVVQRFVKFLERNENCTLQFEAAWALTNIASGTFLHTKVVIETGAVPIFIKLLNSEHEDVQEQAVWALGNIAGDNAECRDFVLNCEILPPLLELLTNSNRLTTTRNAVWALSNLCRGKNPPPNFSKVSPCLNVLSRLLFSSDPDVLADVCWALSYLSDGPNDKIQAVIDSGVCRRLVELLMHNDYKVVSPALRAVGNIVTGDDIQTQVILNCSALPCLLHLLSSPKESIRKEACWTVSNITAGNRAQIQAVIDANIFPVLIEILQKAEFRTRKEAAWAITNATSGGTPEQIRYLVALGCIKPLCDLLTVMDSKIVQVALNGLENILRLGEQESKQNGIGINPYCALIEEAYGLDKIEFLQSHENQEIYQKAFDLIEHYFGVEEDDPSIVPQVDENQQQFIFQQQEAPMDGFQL

Myc-SPOP (from UniProt O43791 1-374) was tested, and the binding [1] was “binds” and the binding [2] was “no binding”.

“endogenous INF2 (DU145) (from UniProt Q27J81 1-1249)” was tested, and the binding [3] was “binds”.

“endogenous KPNA5 (293T) (from UniProt O15131 1-539)” was tested, and the binding [4] was “no binding”, the binding [5] was “no binding” and the binding [6] was “no binding”.

With “overexpressed KPNA5 (from UniProt O15131 1-539)” the binding [7] was “no binding”, the binding [8] was “no binding” and the binding [9] was “no binding”.

Source: publication PMC5426793
